Measurements reported in PubChem BioAssay AID686938 (Drosophila RNAi Screening Center, 2013)

- Screen: 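Fly genes required for calcium entry once internal stores are emptied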 (primary screen)
- Cells: Drosophila S2R+ cells
- Reagent: long dsRNA against Drosophila genes, about 0.25 µg dsRNA per well, roughly 10,000 cells
- Time to read-out: 5 days of knock-down before the calcium assay
- Conditions: thapsigargin (SERCA pump blocker) to empty calcium stores; entry signal taken 4 min after adding it
- Measurement: 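Per-well fluo-4 fluorescence in two replicates, unnormalised, measured in resting cells and 4 min after store depletion by the SERCA blocker thapsigargin; ratio of the two present in few wells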
- Scale: calcium entry signal: higher = stronger calcium signal after store depletion; entry to resting ratio: higher = more calcium entry relative to resting level; resting calcium signal: higher = higher resting calcium signal
- Call rule: 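Called when the plate z-score of the entry-to-rest ratio, mean of duplicates, falls below −3; wells with low overall dye signal (Fmax z below −2) or more than five off-targets excluded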
- Meaning of the calls: active = strongly reduced calcium entry; inactive = no strong reduction
The screen tested about 23,000 reagents; below is an unselected part of those that have a named target and a result. Over the whole deposit, 75 (0.33%) are marked active. 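Raw plate signals without normalisation; calls rest on plate z-scores that were not deposited; ratio present for only 364 wells.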 Names joined by + are all predicted targets of the reagent. Not given: the dose of the treatment.

no.	target gene	amplicon	calcium entry signal, replicate 1 (fluorescence units)	calcium entry signal, replicate 2 (fluorescence units)	entry to resting ratio	resting calcium signal, replicate 1 (fluorescence units)	resting calcium signal, replicate 2 (fluorescence units)	activity call
1	CG6015	DRSC15948	1.97e7	2.83e7		1.35e7	1.73e7	active
2	CG32856	DRSC13124	2.22e7	3.78e7		1.10e7	1.59e7	inactive
3	zormin	DRSC07969	3.67e7	3.59e7		1.78e7	1.62e7	inactive
4	zormin	DRSC08210	3.04e7	3.48e7		1.47e7	1.63e7	inactive
5	zormin	DRSC08212	2.96e7	3.34e7		1.54e7	1.56e7	inactive
6	zormin	DRSC08213	3.23e7	3.74e7		1.54e7	1.82e7	inactive
7	zormin	DRSC08297	3.15e7	3.56e7		1.63e7	1.76e7	inactive
8	zormin	DRSC08571	4.58e7	3.68e7		2.13e7	1.92e7	inactive
9	zormin	DRSC22483	3.67e7	3.75e7		2.04e7	1.72e7	inactive
10	Fmr1	DRSC16674	3.08e7	2.32e7		1.62e7	1.36e7	inactive
11	CG4829	DRSC19920	3.95e7	3.78e7		1.84e7	1.71e7	inactive
12	CG8100	DRSC10961	7.47e7	6.39e7		2.73e7	2.62e7	inactive
13	nerfin-1	DRSC08729	1.96e7	3.02e7		1.06e7	1.23e7	inactive
14	Pgant1	DRSC07095	4.22e7	3.66e7		2.22e7	1.63e7	inactive
15	CG6770	DRSC02992	3.54e7	7.55e7		1.71e7	3.58e7	inactive
16	alien + CG17906	DRSC02641	2.62e7	3.18e7		1.10e7	1.37e7	inactive
17	PCNA2	DRSC02030	4.57e7	5.69e7		2.05e7	2.29e7	inactive
18	MED16	DRSC04506	4.54e7	5.67e7		2.41e7	2.43e7	inactive
19	CG43153	DRSC01189	3.78e7	4.48e7		1.85e7	1.83e7	inactive
20	Rcd4	DRSC02597	2.92e7	5.52e7		1.40e7	2.17e7	inactive
21	CG33137	DRSC22131	1.84e7	3.08e7		9.86e6	1.66e7	inactive
22	CG18304	DRSC02664	3.58e7	3.29e7		1.73e7	1.55e7	inactive
23	CG5174	DRSC06920	3.51e7	4.75e7		1.60e7	2.18e7	inactive
24	ReepA	DRSC04572	3.65e7			1.88e7		inactive
25	ReepA	DRSC22475	3.76e7	3.29e7		2.01e7	1.68e7	inactive
26	dpa	DRSC07604	3.35e7	3.79e7		1.62e7	1.81e7	inactive
27	fok	DRSC02103	6.43e7	4.85e7		3.33e7	2.15e7	inactive
28	Mpv17	DRSC17198	3.89e7	5.74e7	2	1.98e7	2.27e7	inactive
29	nompB	DRSC03701	3.37e7	3.73e7		1.82e7	1.73e7	inactive
30	nompB	DRSC03731	3.17e7	3.18e7		1.89e7	1.60e7	inactive
31	CG3281	DRSC15470	3.11e7	5.32e7		1.26e7	2.16e7	inactive
32	ND6 (retired record)	DRSC21271	2.69e7	4.53e7		1.44e7	2.56e7	inactive
33	CG12862	DRSC06202	2.97e7	4.61e7		1.56e7	1.97e7	inactive
34	gsb	DRSC04692	3.51e7	3.19e7		1.79e7	1.42e7	inactive
35	Cpr72Ec	DRSC10449	3.70e7	4.67e7		1.84e7	3.17e7	inactive
36	CG6984	DRSC07013	2.16e7	2.57e7		1.01e7	1.18e7	inactive
37	CG7856	DRSC04896	4.48e7	4.53e7		2.27e7	2.19e7	inactive
38	CG15046	DRSC19622	5.47e7	3.19e7		2.76e7	1.43e7	inactive
39	Rab9Db + Rab9Fa	DRSC18445	3.76e7	3.86e7		1.76e7	1.85e7	inactive
40	CG9213	DRSC20170	2.72e7	3.25e7		1.37e7	1.50e7	inactive
41	KP78a + KP78b	DRSC16721	3.14e7	2.98e7		1.59e7	1.57e7	inactive
42	KP78a + KP78b	DRSC16722	3.51e7	3.05e7		1.77e7	1.60e7	inactive
43	Nepl11	DRSC12333	4.02e7	4.21e7		1.91e7	2.15e7	inactive
44	Hey	DRSC07440	3.06e7	3.88e7		1.60e7	1.70e7	inactive
45	Hey	DRSC23030	4.72e7	2.94e7		2.37e7	1.36e7	inactive
46	CG10993	DRSC19362	1.73e7	2.02e7		9.73e6	9.79e6	inactive
47	CG11300	DRSC04104	4.13e7	4.66e7		2.05e7	2.17e7	inactive
48	Hph	DRSC12164	2.40e7	3.96e7		1.07e7	1.75e7	inactive
49	Hph	DRSC12251	3.57e7	1.96e7		1.68e7	9.68e6	inactive
50	Hph	DRSC21876	2.86e7	6.73e7		1.46e7	2.84e7	inactive
51	Cp15	DRSC11118	3.37e7	4.42e7		1.70e7	2.15e7	inactive
52	CG8089	DRSC07074	3.60e7	3.98e7		1.82e7	1.93e7	inactive
53	RhoGAP54D	DRSC06990	5.08e7	6.66e7		2.18e7	3.08e7	inactive
54	Irk2	DRSC15569	5.74e7	4.77e7		2.60e7	2.06e7	inactive
55	CG12986	DRSC19506	2.63e7	3.28e7		1.38e7	1.44e7	inactive
56	ATPsynbeta	DRSC17194	4.69e7	3.95e7	1.9	2.52e7	2.21e7	inactive
57	CG14667	DRSC12253	3.18e7	2.95e7		1.69e7	1.50e7	inactive
58	Mst57Dc	DRSC16745	4.18e7	4.27e7		2.11e7	1.79e7	inactive
59	CG33552	DRSC01551	2.37e7	3.35e7		1.25e7	1.41e7	inactive
60	CG4294	DRSC04460	3.54e7			1.65e7		inactive
61	Sply	DRSC07299	3.45e7	2.04e7		1.97e7	1.09e7	inactive
62	GlcAT-I	DRSC17307	4.73e7	4.27e7		2.57e7	1.93e7	inactive
63	Pxd	DRSC16805	2.87e7	4.39e7		1.38e7	5.40e7	inactive
64	Spn42De	DRSC05011	6.10e7	3.67e7		3.08e7	1.55e7	inactive
65	CG9896	DRSC03962	3.16e7	8.47e7		1.42e7	3.50e7	inactive
66	CG9896	DRSC04594	4.70e7	5.24e7		2.40e7	2.44e7	inactive
67	CG13113	DRSC02211	3.08e7	4.46e7		1.41e7	1.71e7	inactive
68	CG13403	DRSC19535	2.66e7	3.63e7		1.43e7	1.60e7	inactive
69	jumu	DRSC16651	2.71e7	3.47e7		1.63e7	1.88e7	inactive
70	CG2247	DRSC19844	2.91e7	3.83e7		1.43e7	1.84e7	inactive
71	l(2)gd1	DRSC02773	4.68e7			2.12e7		inactive
72	mRpL14	DRSC18597	4.14e7	4.32e7	2.2	1.85e7	1.78e7	inactive
73	CNBP	DRSC04116	3.97e7	3.67e7		2.19e7	1.93e7	inactive
74	CNBP	DRSC04419	4.27e7	2.43e7		2.16e7	1.26e7	inactive
75	CNBP	DRSC21317	2.39e7	2.79e7		1.43e7	1.41e7	inactive

Called active, of those listed so far:
target gene	amplicon	calcium entry signal, replicate 1 (fluorescence units)	calcium entry signal, replicate 2 (fluorescence units)	entry to resting ratio	resting calcium signal, replicate 1 (fluorescence units)	resting calcium signal, replicate 2 (fluorescence units)	activity call
CG6015	DRSC15948	1.97e7	2.83e7		1.35e7	1.73e7	active
